Results from patent publication US20080096967A1, “Formulations for Injection of Catecholic Butanes, Including Ndga Compounds, Into Animals” (priority 2005, published 2008).
The source gives many values for each of these; only a part stands here.

Legend:
[1] = Solubility of M4N in water-insoluble lipids (visual inspection); type: physicochemical
[2] = M4N solubility in water miscible organic solvents up to 48 hours (RP-HPLC); type: physicochemical
Description: To prepare M4N samples, 200 μL of 100 mg/mL M4N dissolved in acetone were placed in 1.5 mL polypropylene microtubes. The solvent was allowed to evaporate at room temperature for 48 hours until the samples were completely dry.
The water miscible organic solvent formulations were prepared in 15 mL polypropylene centrifuge tubes. 10 mL of each formulation was prepared. Each solvent was added on the basis of weight using its respective density at 25° C. Following brief mixing, each formulation was filtered through a 0.45 μm surfactant free cellulose acetate (“SFCA”) filter into a fresh 15 mL tube. Formulations were kept at room temperature until ready for use.
At each time point, the samples were centrifuged for 2 minutes at 13,000 rpm to pellet any solid M4N. As noted in Table 25, over half of the formulation conditions examined were able to solubilize M4N to a concentration of greater than 10 mg/Ml.

[3] = 33% Peppermint Oil, 33% Tween ® 20, 33% PEG 400, M4N 60 mg/mL
[4] = 40% Peppermint Oil, 40% PEG 400, 20% Glycerol, M4N 52 mg/mL
[5] = 45% Peppermint Oil, 45% PEG 400, 10% Glycerol, M4N 59 mg/mL
[6] = 50% Peppermint Oil, 50% PEG 300, M4N 40 mg/mL
[7] = 50% Peppermint Oil, 50% PEG 300, M4N 60 mg/mL
[8] = 50% Peppermint Oil, 50% PEG 300, M4N 125 mg/mL
[9] = 50% Peppermint Oil, 50% PEG 400, M4N 40 mg/mL
[10] = 50% Peppermint Oil, 50% PEG 400, M4N 60 mg/mL
[11] = 50% Peppermint Oil, 50% PEG 400, M4N 100 mg/mL
[12] = 50% Peppermint Oil, 50% PEG 400, M4N 125 mg/mL
[13] = 50% Peppermint Oil, 50% Sesame Oil, M4N 40 mg/mL
[14] = 50% Peppermint Oil, 50% Sesame Oil, M4N 60 mg/mL
[15] = 50% Peppermint Oil, 50% Tween ® 20, M4N 40 mg/mL
[16] = 50% Peppermint Oil, 50% Tween ® 20, M4N 60 mg/mL
[17] = 50% Peppermint Oil, 50% Tween ® 20, M4N 125 mg/mL
[18] = 60% Peppermint Oil, 40% PEG 300, M4N 60 mg/mL
[19] = 60% Peppermint Oil, 40% PEG 400, M4N 60 mg/mL
[20] = 75% Sesame Oil, 9% Tween ® 20, 16% Glycerol, M4N 24.3 mg/mL
[21] = 80% Olive Oil, 20% Soybean Oil, M4N 60 mg/mL
[22] = 85% Sesame Oil, 15% Tween ® 20, M4N 40 mg/mL
[23] = 85% Sesame Oil, 15% Tween ® 20, M4N 60 mg/mL
[24] = 89% Sesame Oil, 11% Tween ® 20, M4N 29 mg/mL
[25] = 100% Mineral Oil, M4N 100 mg/mL
[26] = 100% Mineral Oil, M4N 200 mg/mL

COc1ccc(C[C@@H](C)[C@@H](C)Cc2ccc(OC)c(OC)c2)cc1OC [Formulation M4N, meso-1,4-bis(3,4-dimethoxyphenyl)-2,3-dimethylbutane]
11.52 mg/mL: M4N solubility ([2]; 100% PEG300, 48 hrs at room temperature)
1.10 mg/mL: M4N solubility ([2]; 100% PG, 2 hrs at room temperature)
10.37 mg/mL: M4N solubility ([2]; 100% PEG300, 24 hrs at room temperature)
1.76 mg/mL: M4N solubility ([2]; 100% PG, 48 hrs at room temperature)
Y: Dissolution After Cool-Down [1, 3] | Dissolution After Cool-Down [1, 6] | Dissolution After Cool-Down [1, 7] | Dissolution After Cool-Down [1, 9] | Dissolution After Cool-Down [1, 10] | Dissolution After Rotation ([1]; 50% Peppermint Oil, 50% Sesame Oil, M4N 20 mg/mL) | Dissolution After Cool-Down [1, 13] | Dissolution After Cool-Down [1, 14] | Dissolution After Cool-Down [1, 15] | Dissolution After Cool-Down [1, 16] | Dissolution After Cool-Down [1, 18] | Dissolution After Cool-Down [1, 20] | Dissolution After Cool-Down [1, 24] | Dissolution After Cool-Down ([1]; 100% Corn Oil, M4N 1 mg/mL) | Dissolution After Cool-Down ([1]; 100% Corn Oil, M4N 10 mg/mL) | Dissolution After Cool-Down ([1]; 100% Corn Oil, M4N 20 mg/mL) | Dissolution After Cool-Down ([1]; 100% Corn Oil, M4N 40 mg/mL) | Dissolution After Cool-Down ([1]; 100% Corn Oil, M4N 50 mg/mL) | Dissolution After Cool-Down ([1]; 100% Corn Oil, M4N 60 mg/mL) | Dissolution After Cool-Down ([1]; 100% Mineral Oil, M4N 10 mg/mL) | Dissolution After Cool-Down ([1]; 100% Mineral Oil, M4N 50 mg/mL) | Dissolution After Rotation ([1]; 100% Sesame Oil, M4N 10 mg/mL) | Dissolution After Cool-Down ([1]; 100% Sesame Oil, M4N 20 mg/mL) | Dissolution After Cool-Down ([1]; 100% Sesame Oil, M4N 30 mg/mL) | Dissolution After Cool-Down ([1]; 100% Sesame Oil, M4N 50 mg/mL) | Dissolution After Cool-Down ([1]; 100% Soybean Oil, M4N 10 mg/mL) | Dissolution After Rotation ([1]; Peppermint Oil, M4N 1 mg/mL) | Dissolution After Rotation ([1]; Peppermint Oil, M4N 10 mg/mL) | Dissolution After Rotation ([1]; Peppermint Oil, M4N 20 mg/mL) | Dissolution After Cool-Down ([1]; Peppermint Oil, M4N 40 mg/mL) | Dissolution After Cool-Down ([1]; Peppermint Oil, M4N 60 mg/mL) | Dissolution After Cool-Down ([1]; Peppermint Oil, M4N 100 mg/mL) | Dissolution After Cool-Down ([1]; Peppermint Oil, M4N 125 mg/mL) | Dissolution After Rotation ([1]; Sesame Oil and Tween ® 20: 10% Oil emulsion in 90% saline, M4N 2.9 mg/mL) | Dissolution After Rotation ([1]; Sesame Oil, Tween ® 20 and Glycerol: 10% Oil emulsion in 90% saline, M4N 2.4 mg/mL)
1.33 mg/mL: M4N solubility ([2]; 100% PG, 24 hrs at room temperature)
5.81 mg/mL: M4N solubility ([2]; 100% PEG300, 2 hrs at room temperature)
N: Dissolution After Rotation [1, 3] | Dissolution After Cool-Down [1, 4] | Dissolution After Rotation [1, 4] | Dissolution After Cool-Down [1, 5] | Dissolution After Rotation [1, 5] | Dissolution After Rotation [1, 6] | Dissolution After Rotation [1, 7] | Dissolution After Cool-Down [1, 8] | Dissolution After Rotation [1, 8] | Dissolution After Rotation [1, 9] | Dissolution After Rotation [1, 10] | Dissolution After Cool-Down [1, 11] | Dissolution After Rotation [1, 11] | Dissolution After Cool-Down [1, 12] | Dissolution After Rotation [1, 12] | Dissolution After Rotation [1, 13] | Dissolution After Rotation [1, 14] | Dissolution After Rotation [1, 15] | Dissolution After Rotation [1, 16] | Dissolution After Cool-Down [1, 17] | Dissolution After Rotation [1, 17] | Dissolution After Rotation [1, 18] | Dissolution After Cool-Down [1, 19] | Dissolution After Rotation [1, 19] | Dissolution After Rotation [1, 20] | Dissolution After Cool-Down [1, 21] | Dissolution After Rotation [1, 21] | Dissolution After Cool-Down [1, 22] | Dissolution After Rotation [1, 22] | Dissolution After Cool-Down [1, 23] | Dissolution After Rotation [1, 23] | Dissolution After Rotation [1, 24] | Dissolution After Rotation ([1]; 100% Corn Oil, M4N 1 mg/mL) | Dissolution After Rotation ([1]; 100% Corn Oil, M4N 10 mg/mL) | Dissolution After Rotation ([1]; 100% Corn Oil, M4N 20 mg/mL) | Dissolution After Rotation ([1]; 100% Corn Oil, M4N 40 mg/mL) | Dissolution After Rotation ([1]; 100% Corn Oil, M4N 50 mg/mL) | Dissolution After Rotation ([1]; 100% Corn Oil, M4N 60 mg/mL) | Dissolution After Cool-Down ([1]; 100% Corn Oil, M4N 100 mg/mL) | Dissolution After Rotation ([1]; 100% Corn Oil, M4N 100 mg/mL) | Dissolution After Rotation ([1]; 100% Mineral Oil, M4N 10 mg/mL) | Dissolution After Rotation ([1]; 100% Mineral Oil, M4N 50 mg/mL) | Dissolution After Cool-Down [1, 25] | Dissolution After Rotation [1, 25] | Dissolution After Cool-Down [1, 26] | Dissolution After Rotation [1, 26] | Dissolution After Cool-Down ([1]; 100% Olive Oil, M4N 30 mg/mL) | Dissolution After Rotation ([1]; 100% Olive Oil, M4N 30 mg/mL) | Dissolution After Rotation ([1]; 100% Sesame Oil, M4N 20 mg/mL) | Dissolution After Rotation ([1]; 100% Sesame Oil, M4N 30 mg/mL) | Dissolution After Rotation ([1]; 100% Sesame Oil, M4N 50 mg/mL) | Dissolution After Rotation ([1]; 100% Soybean Oil, M4N 10 mg/mL) | Dissolution After Cool-Down ([1]; 100% Soybean Oil, M4N 30 mg/mL) | Dissolution After Rotation ([1]; 100% Soybean Oil, M4N 30 mg/mL) | Dissolution After Cool-Down ([1]; 100% Soybean Oil, M4N 50 mg/mL) | Dissolution After Rotation ([1]; 100% Soybean Oil, M4N 50 mg/mL) | Dissolution After Rotation ([1]; Peppermint Oil, M4N 40 mg/mL) | Dissolution After Rotation ([1]; Peppermint Oil, M4N 60 mg/mL) | Dissolution After Rotation ([1]; Peppermint Oil, M4N 100 mg/mL) | Dissolution After Rotation ([1]; Peppermint Oil, M4N 125 mg/mL)
